Data published in US20220088053.
A weaker result is weaker than the reference pair of the same experiment. Where a protein sequence is shown, tags need not be part of it.

Target: T1, USB1 wild-type (Homo sapiens) (UniProt Q9BQ65)
T1 sequence: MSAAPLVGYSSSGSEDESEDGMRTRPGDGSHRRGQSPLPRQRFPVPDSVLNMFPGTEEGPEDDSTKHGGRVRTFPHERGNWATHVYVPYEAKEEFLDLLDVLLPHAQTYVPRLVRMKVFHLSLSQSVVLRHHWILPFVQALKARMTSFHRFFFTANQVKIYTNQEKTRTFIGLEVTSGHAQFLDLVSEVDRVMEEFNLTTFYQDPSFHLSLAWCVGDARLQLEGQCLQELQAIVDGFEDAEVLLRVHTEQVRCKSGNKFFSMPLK
Assay: enzyme reaction in vitro
Conditions: 37 C, 1 mM EDTA, purified recombinant protein, protein details: His (pColdI vector, E. coli Rosetta2), label: 5'-FAM

CCUUUCCUUUUUUUUU [16mer-oU]
activity on this sequence (single U removal confirmed with shorter RNA substrates): less active

AAUUCGUGAAGCGUUCCAUAUUUUUAAUAAUAAUAAUAA [U6-oUA]
activity on this sequence (trimmed UAA intermediates seen, variant of U6-oU): active

UCCCUGAGACCCUUUAACCUGUGAUUUUU [miR125a-oU]
activity on this sequence (slowly removes one 3' U only, variant of miR125a-native): less active

AAUUCGUGAAGCGUUCCAUAUUUUU [U6-oU]
activity on this sequence (removes a single U, oligo(U) tail not progressively removed): less active

UCCCUGAGACCCUUUAACCUGUGAAAAAA [miR125a-oA]
activity on this sequence (efficient time-dependent deadenylation, variant of miR125a-native): active

UCCCUGAGACCCUUUAACCUGUGAUUAAA [miR125a-oUA]
activity on this sequence (3' adenosines removed, variant of miR125a-native): active

AAUUCGUGAAGCGUUCCAUAUUUUUAAAAAAA [U6-oA]
activity on this sequence (rapid removal of 3' adenosines, variant of U6-oU): active
